Among all 300,000 compounds or so, about 3,700 (1.2%) were called active. Inconclusive results, whose numbers are uncertain, are shown with a selection of clear calls. Calls come from the whole dose curve; tested in HEK293 cells. Potencies of inconclusive entries are doubtful fits and often do not repeat.
Assay: qHTS for Inhibitors of binding or entry into cells for Lassa Virus; note: nearly all actives have a fitted effect of over 50% in size
Settings: Lassa virus pseudotype entry inhibition, cell reporter; series mostly up to 37.9 µM
Potency is the fitted concentration of half-maximal effect.

Compound	Potency
COc1ccc(N2C(=O)CCSC23C(=O)N(Cc2ccc(F)cc2)c2ccccc23)cc1 (stereo not given)	inconclusive: 7.94 µM [inhibitor, partial curve, poor fit]
O=C(CCCN1C(=O)c2cccnc2C1=O)Nc1ccccc1F	inconclusive: 3.16 µM [inhibitor, partial curve, poor fit]
Fc1cccc2sc(Nc3nc4cc5c(cc4s3)OCO5)nc12	inconclusive: 1 µM [activator, partial curve, poor fit]
O=C(CSc1ccccc1F)NC(=O)c1ccc(Cl)cc1	inconclusive: 10 µM [inhibitor, partial curve]
COc1ccc(/C=C2\CCC/C(=C\C=N\N(C)C)C2=O)cc1	inactive
O=C(NCC1(c2ccccc2)CCCC1)c1cccc(Br)c1	inconclusive: 22.4 µM [inhibitor, partial curve, poor fit]
COC(=O)c1ccc(NC(=O)Nc2ccccc2F)cc1	inconclusive: 35.5 µM [inhibitor, single point]
Cn1c(/C=N/Nc2nc3ccccc3[nH]2)nc2ccccc21	inconclusive: 35.5 µM [inhibitor, single point]
CCN1CCN(C(=O)c2ccc3c(c2)c(C)c(C)n3Cc2ccccc2)CC1	inactive
O=S(=O)(c1ccc(Br)cc1)c1nnn2c1nc(NCCc1ccccc1)c1sccc12	inconclusive: 28.2 µM [inhibitor, single point]
O=C(c1ccc2c(c1)N(Cc1ccc(Cl)cc1)C(=O)c1ccccc1S2(=O)=O)N1CCN(Cc2ccccc2)CC1	inconclusive: 12.6 µM [inhibitor, partial curve, poor fit]
Cc1cccc(N(C(=O)CCC(=O)Nc2nccs2)C(C(=O)NC(C)(C)C)c2ccc(O)cc2)c1 (stereo not given)	inconclusive: 3.66 µM [activator, partial curve, poor fit]
Cc1cc(C)cc(NC(=O)CCc2c(C)nc3c(c2C)c(=O)n(C)c(=O)n3C)c1	inconclusive: 35.5 µM [activator, single point]
Cc1ccc2c(CNCc3ccco3)cc(=O)oc2c1	inactive
O=C(CCCc1cccs1)N1CCN(S(=O)(=O)c2ccccc2Br)CC1	inconclusive: 12.6 µM [inhibitor, partial curve, poor fit]
Cc1cc(C)c(S(=O)(=O)N2CCCCC2CCNC(=O)C(=O)NCc2ccco2)c(C)c1 (stereo not given)	inconclusive: 3.55 µM [inhibitor, full curve, poor fit]
O=C(CCS(=O)(=O)c1ccccc1)Nc1ccc(-c2nc3ccccc3s2)c(O)c1	inconclusive: 1.26 µM [activator, full curve, poor fit]
CC12CCC=CC1=C(C=O)C1C2CCC2(C)C(O)CCC12 (stereo not given)	inconclusive: 8.91 µM [inhibitor, partial curve, poor fit]
O=c1oc2ccc(Cl)cc2nc1/C=C(\O)c1cccs1	inconclusive: 35.5 µM [inhibitor, single point]
Cc1ccc(OCC(=O)N2CCN(Cc3ccc4c(c3)OCO4)CC2)cc1	inconclusive: 35.5 µM [inhibitor, single point]
CCOc1ccc(NC(=O)c2ccc(NC(=S)NC3CCCCC3)cc2)cc1	inactive
COc1ccc2[nH]c(C(=O)NCc3ccc4c(c3)OCO4)cc2c1	inconclusive: 35.5 µM [inhibitor, single point]

Compound	Potency
Cc1cc(N2CCC(C(=O)Nc3ccccc3Cl)CC2)n2nc(C)c(-c3ccc(Cl)cc3)c2n1	inactive
c1ccc(-c2nnc(N3CCN(c4ccccc4)CC3)nc2-c2ccccc2)cc1	inactive
CCC(CC)C(=O)Nc1nnc(S(=O)(=O)N2c3ccccc3CC2C)s1 (stereo not given)	inconclusive: 3.98 µM [activator, single point]
COc1ccc(C(=O)NNc2ncnc3c2cnn3-c2ccc(C)cc2C)cc1	inactive
CCOCCCn1c(=N)c(C(=O)NC(C)c2ccccc2)cc2c(=O)n3cccc(C)c3nc21 (stereo not given)	inactive
CCOC(=O)C1(Cc2cccc(OC)c2)CCN(Cc2cccc(OC)c2O)CC1	inconclusive: 25.1 µM [inhibitor, single point]
CC(=O)NC12CC3CC(C1)CC(C(=O)N1CCN(S(=O)(=O)c4cccc(C(F)(F)F)c4)CC1)(C3)C2	inconclusive: 35.5 µM [inhibitor, single point]
O=S(=O)(NCCSc1ccc(Cl)cc1)c1ccc2c(c1)OCCO2	inconclusive: 6.31 µM [activator, single point]
c1cc(-c2noc(CC3CCCCC3)n2)ccn1	inconclusive: 2.59 µM [activator, partial curve, poor fit]
COCCCN1CC23C=CC(O2)C(C(=O)OC)C3C1=O (stereo not given)	inconclusive: 35.5 µM [activator, partial curve, poor fit]
CC1CCN(S(=O)(=O)c2cc(C(=O)NCc3ccccc3)n(C)c2)CC1	inactive
Clc1cccc(CSc2nnc(-c3ccccn3)n2Cc2ccco2)c1	inconclusive: 29.1 µM [inhibitor, single point]
COC(=O)c1ccccc1CC1Cc2cc3c(cc2C1=O)CCC3 (stereo not given)	inconclusive: 2.51 µM [activator, partial curve, poor fit]
O=C(O)Cc1ccc(NC(=O)Nc2cccc(Cl)c2)cc1	inactive
CCC1([N+](=O)[O-])COC(C=Cc2ccccc2)OC1 (stereo not given)	inconclusive: 17.8 µM [activator, single point]
N#Cc1cn(CCOc2ccc(F)cc2)c2ccccc12	inactive
O=C(COC(=O)c1cccc(S(=O)(=O)NCc2ccccc2)c1)c1ccc2c(c1)OCCO2	inconclusive: 6.31 µM [inhibitor, full curve, poor fit]
COc1ccc(Cl)cc1NC(=O)c1cnc(N2CCCCC2)c2ccccc12	inactive
COc1ccccc1CNC(=O)c1ccc(-n2c(C)cc3c2CCCC3)cc1	inconclusive: 11.2 µM [inhibitor, partial curve, poor fit]
CC(c1ccccc1)N(CC(=O)NC1CCCCC1)S(=O)(=O)c1cccc(C(F)(F)F)c1 (stereo not given)	inconclusive: 11.2 µM [inhibitor, partial curve, poor fit]
CCOC(=O)Cn1c(=O)c2c(nc(Br)n2Cc2ccccc2Cl)n(C)c1=O	inconclusive: 0.794 µM [activator, single point]
Cc1ccc(-c2ccc(CN3C(C(C)C)C(=O)N(Cc4cn(CCC5OCCO5)nn4)CCS3(=O)=O)cc2)cc1 (stereo not given)	inconclusive: 7.91 µM [inhibitor, partial curve, poor fit]

As entered above.
Potency with c1cc(-c2noc(CC3CCCCC3)n2)ccn1 is entered as inconclusive: 2.59 µM [activator, partial curve, poor fit]
Potency with COc1ccc(/C=C2\CCC/C(=C\C=N\N(C)C)C2=O)cc1 is entered as inactive
Potency with O=c1oc2ccc(Cl)cc2nc1/C=C(\O)c1cccs1 is entered as inconclusive: 35.5 µM [inhibitor, single point]

(next part)

Compound	Potency
COc1ccc(-c2nc(NC(C)=O)sc2-c2ccccc2)cc1	inconclusive: 2.51 µM [inhibitor, partial curve, poor fit]
COc1ccc(/C=C/C(=O)N/C(=C\c2ccco2)C(=O)NCCc2nc3ccccc3[nH]2)cc1	inactive
O=C(c1ccccc1F)N1c2nc(-c3ccco3)nn2C2(CCCCC2)[C@@H]2CCCC[C@@H]21	inactive
CCOC(=O)N/N=C(\C)c1ccc(C)c([N+](=O)[O-])c1	inactive
Cc1ccc(N2CC(C(=O)Nc3nnc(SCCC4OCCO4)s3)CC2=O)cc1 (stereo not given)	inactive
O=[N+]([O-])c1ccc2nc[nH]c2c1	inactive
CCCC(O)(CCC)C(=O)NNc1ccc(C)cc1	inconclusive: 3.16 µM [inhibitor, full curve]
COC(=O)C[C@]1(C(=O)OC)CN(C#N)N(c2ccc(Cl)cc2)C12c1ccccc1-c1ccccc12	active: 3.16 µM
Cc1cc(C)nc(Nc2ccc(F)cc2)n1	inconclusive: 1.26 µM [inhibitor, single point]
N=c1c2c(ncn1Cc1ccco1)Oc1c(ccc3ccccc13)C2c1ccccc1 (stereo not given)	inconclusive: 20.6 µM [inhibitor, partial curve, poor fit]
O=C(Cc1ccccc1F)Nc1cccc2cccnc12	inconclusive: 11.2 µM [activator, single point]
O=C(COC(=O)[C@@H]1CC(O)CN1S(=O)(=O)c1ccccc1[N+](=O)[O-])Nc1ccc2ccccc2c1 (stereo not given in full)	inconclusive: 2.82 µM [activator, partial curve, poor fit]
Cc1ccc(NC(=O)N2CCCC2C(=O)Nc2c(C)cc(C)cc2C)cc1 (stereo not given)	inconclusive: 5.01 µM [activator, full curve, poor fit]
COc1ccccc1N(C)S(=O)(=O)c1ccc(C(=O)Nc2ccc(N3CCOCC3)cc2)cc1	inconclusive: 17.8 µM [inhibitor, partial curve, poor fit]
COc1ccc(-c2nc3n(c2C)Cc2ccccc2-3)cc1	inconclusive: 1.12 µM [activator, full curve, poor fit]
Cc1cc(Br)ccc1NC(=O)C1C2CCC(O2)C1C(=O)O (stereo not given)	inactive
COCCOC(=O)c1c(C)oc2ccc(OCc3ccccc3)cc12	inconclusive: 32.6 µM [inhibitor, single point]
COc1ccc2ccccc2c1CNc1nnnn1C	inconclusive: 35.5 µM [inhibitor, single point]
CCC(=O)N/N=C/c1ccc(-c2ccc([N+](=O)[O-])cc2)o1	inconclusive: 11.2 µM [activator, partial curve, poor fit]
Cc1nn(-c2ccccc2)c2c1C(c1ccc3c(c1)OCO3)SCC(=O)N2 (stereo not given)	inconclusive: 0.058 µM [inhibitor, full curve, poor fit]
Cc1ccc(-c2nc3ccccn3c2Nc2ccc3c(c2)OCCO3)o1	inactive
